Reference: PMC12955996
These are yes or no findings as the source states them, for the method shown. Binding seen in cells or lysates may run through a third protein. Binding can be weak; no strength is given.

By UniProt entry, the sequences of proteins in these tests, tags left out. Where a name states a change or a piece, a line headed by the entry shows the natural chain unless it says otherwise.
UniProt Q8BH61: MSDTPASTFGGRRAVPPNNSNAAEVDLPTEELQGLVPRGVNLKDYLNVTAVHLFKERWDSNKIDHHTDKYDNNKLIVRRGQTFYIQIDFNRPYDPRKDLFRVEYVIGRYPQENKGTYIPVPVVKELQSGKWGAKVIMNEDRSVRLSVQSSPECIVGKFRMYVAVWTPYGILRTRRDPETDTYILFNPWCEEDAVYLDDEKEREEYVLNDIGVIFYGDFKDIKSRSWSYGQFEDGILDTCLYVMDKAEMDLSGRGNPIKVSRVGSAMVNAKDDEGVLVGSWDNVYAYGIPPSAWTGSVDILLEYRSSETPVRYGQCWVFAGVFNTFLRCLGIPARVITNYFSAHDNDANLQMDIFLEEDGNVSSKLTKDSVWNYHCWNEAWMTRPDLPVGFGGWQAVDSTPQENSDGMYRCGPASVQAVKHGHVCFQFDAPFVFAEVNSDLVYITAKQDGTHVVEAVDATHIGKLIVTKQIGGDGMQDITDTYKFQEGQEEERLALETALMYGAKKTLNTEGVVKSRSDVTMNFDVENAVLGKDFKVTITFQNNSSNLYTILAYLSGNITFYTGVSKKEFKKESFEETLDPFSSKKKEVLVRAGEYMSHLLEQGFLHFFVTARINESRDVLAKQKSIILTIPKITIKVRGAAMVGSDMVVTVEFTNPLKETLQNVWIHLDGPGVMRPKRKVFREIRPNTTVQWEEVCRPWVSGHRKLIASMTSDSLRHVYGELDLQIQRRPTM
UniProt P52480: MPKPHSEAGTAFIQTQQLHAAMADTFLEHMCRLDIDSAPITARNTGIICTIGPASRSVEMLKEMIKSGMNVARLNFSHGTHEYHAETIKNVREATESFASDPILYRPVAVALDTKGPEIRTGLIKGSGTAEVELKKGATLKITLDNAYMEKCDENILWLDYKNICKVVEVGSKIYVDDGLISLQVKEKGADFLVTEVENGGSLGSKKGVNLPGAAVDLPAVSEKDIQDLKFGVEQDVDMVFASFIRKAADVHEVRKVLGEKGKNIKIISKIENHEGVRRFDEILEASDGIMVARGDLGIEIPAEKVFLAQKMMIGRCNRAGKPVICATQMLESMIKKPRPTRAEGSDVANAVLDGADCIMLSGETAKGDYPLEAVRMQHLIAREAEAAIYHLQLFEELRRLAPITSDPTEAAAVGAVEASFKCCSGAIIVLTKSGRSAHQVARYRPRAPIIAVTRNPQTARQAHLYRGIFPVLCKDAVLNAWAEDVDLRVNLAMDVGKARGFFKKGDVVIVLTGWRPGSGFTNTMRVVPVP

What was measured:
Flag‐tagged F13A1 = Flag‐tagged F13A1 (UniProt Q8BH61); test: co-IP; HEK293T co-transfected with Flag‐F13A1 and HA‐PKM2 (24 h), with or without ionomycin (2 µM, 12 h); anti‐Flag and anti‐HA magnetic beads, overnight at 4°C, Western blot
[1] = biological target: Coagulation Factor XIII Subunit A (F13A1) (mouse (endogenous in BMDMs)) (UniProt Q8BH61); test: co-IP; BMDM lysates, anti‐F13A1 antibody on Protein A/G magnetic beads, overnight at 4°C, Western blot; cells exposed 24 h to HCM or HCM‐PA; in one panel pretreated with BAPTA‐AM (5 µM, 2 h)

| binding (Flag‐tagged F13A1) | binding [1] | Substance |
| --- | --- | --- |
| binds |  | HA‐tagged PKM2 (from UniProt P52480 1-531) |
|  | binds | pyruvate kinase M2 isoform (PKM2) (from UniProt P52480 1-531) |
